Laboratory results from publication PMC8031463.

Target: T1, 4-myc-Cerulean-AVR1 (Gal4 binding domain fusion) (Phytophthora infestans) (UniProt D0NVB5)
T1 sequence: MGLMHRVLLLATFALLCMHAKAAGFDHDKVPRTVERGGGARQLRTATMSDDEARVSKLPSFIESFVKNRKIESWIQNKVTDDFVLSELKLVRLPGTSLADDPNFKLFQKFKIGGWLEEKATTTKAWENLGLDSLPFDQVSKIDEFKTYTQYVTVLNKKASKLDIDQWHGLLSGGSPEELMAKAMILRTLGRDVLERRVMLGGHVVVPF
Experiment: two-hybrid

Substance | binding
Physcomitrium patens Sec5d (Gal4 activation domain fusion) | binds
Physcomitrium patens Sec5b (Gal4 activation domain fusion) | binds

Results are given in words; binding and its absence hold for the method and conditions named. Binding can be weak; no strength is given. Where a sequence is shown, tags or fusion partners need not be part of it.
